Reference: patent US20190016825A1
These are yes or no findings as the source states them, for the method shown. Some entries that bind do so weakly or less than the wild type.

Protein sequences, listed by entry. Tags and fused reporters are not part of them. Lines headed by an entry give the natural chain unless they say otherwise; changes in a name come on top.
UniProt Q8NBP7: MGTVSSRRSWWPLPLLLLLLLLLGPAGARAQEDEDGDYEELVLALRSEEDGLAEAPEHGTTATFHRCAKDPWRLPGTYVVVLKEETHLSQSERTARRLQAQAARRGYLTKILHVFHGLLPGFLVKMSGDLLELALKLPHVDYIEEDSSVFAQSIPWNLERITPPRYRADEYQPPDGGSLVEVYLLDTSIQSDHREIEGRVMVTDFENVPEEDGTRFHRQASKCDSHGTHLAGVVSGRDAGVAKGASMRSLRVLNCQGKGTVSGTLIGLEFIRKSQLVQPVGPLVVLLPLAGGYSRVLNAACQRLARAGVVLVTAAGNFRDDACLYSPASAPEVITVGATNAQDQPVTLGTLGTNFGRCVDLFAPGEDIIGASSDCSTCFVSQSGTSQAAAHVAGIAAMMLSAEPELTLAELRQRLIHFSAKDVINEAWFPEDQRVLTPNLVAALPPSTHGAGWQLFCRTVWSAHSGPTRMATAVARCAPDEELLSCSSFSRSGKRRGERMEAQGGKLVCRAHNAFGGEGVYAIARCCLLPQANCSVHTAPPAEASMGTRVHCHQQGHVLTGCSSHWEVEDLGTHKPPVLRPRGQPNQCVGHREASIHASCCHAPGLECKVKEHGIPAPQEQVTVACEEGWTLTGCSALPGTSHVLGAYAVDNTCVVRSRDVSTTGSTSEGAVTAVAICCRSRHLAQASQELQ

Key:
[1] = biological target: PCSK9-D374Y-BP15-His6 (human) (UniProt Q8NBP7); assay: ELISA (Test 2)
[2] = biological target: PCSK9-BP15-His6 (human) (UniProt Q8NBP7); assay: ELISA (Test 1)

| Binder | binding [1] | binding [2] |
| --- | --- | --- |
| h001-11 (antibody, human IgG1, V domains shown) VH: QVQLVQSGAEVKKPGASVKVSCKASGYTFTDYWMHWVRQAPGQGLEWMGYINPSSGFTKYHQNFKDRVTMTRDTSISTAYMELSRLTSDDTAVYYCARQYDYDEDWYFDVWGQGTTVTVSS VL: DIQMSQSPSSLSASVGDRVTITCKSSQSLLNSRTRKNFLAWYQQKPGKAPKLLIYWASTRESGVPDRFSGSGSGTDFTLTISSLQPEDFATYYCKQSFNLFTFGQGTKLEIK | binds | binds |
| h001-12 (antibody, human IgG1, V domains shown) VH: QVQLVQSGAEVKKPGASVKVSCKASGYTFTDYWMHWVRQAPGQGLEWMGYINPSSGFTKYHQNFKDRVTMTRDTSISTAYMELSRLTSDDTAVYYCARQYDYDEDWYFDVWGQGTTVTVSS VL: DIVMSQSPSSLSASVGDRVTITCKSSQSLLNSRTRKNFLAWYQQKPGKSPKLLIYWASTRESGVPDRFSGSGSGTDFTLTISSLQPEDFATYYCKQSFNLFTFGQGTKLEIK | binds | binds |
| h001-13 (antibody, human IgG1, V domains shown) VH: QVQLVQSGAEVKKPGASVKVSCKASGYTFNDYWMHWVRQAPGQGLEWMGYINPSSGFTKYHQNFKDRVTMTRDTSISTAYMELSRLTSDDTAVYYCARQYDYDEDWYFDVWGQGTTVTVSS VL: DIQMTQSPSSLSASVGDRVTITCKSSQSLLNSRTRKNFLAWYQQKPGKAPKLLIYWASTRESGVPSRFSGSGSGTDFTLTISSLQPEDFATYYCKQSFNLFTFGQGTKLEIK | binds | binds |
| h001-14 (antibody, human IgG1, V domains shown) VH: QVQLVQSGAEVKKPGASVKVSCKASGYTFNDYWMHWVRQAPGQGLEWMGYINPSSGFTKYHQNFKDRVTMTRDTSISTAYMELSRLTSDDTAVYYCARQYDYDEDWYFDVWGQGTTVTVSS VL: DIQMTQSPSSLSASVGDRVTITCKSSQSLLNSRTRKNFLAWYQQKPGKAPKLLIYWASTRESGVPDRFSGSGSGTDFTLTISSLQPEDFATYYCKQSFNLFTFGQGTKLEIK | binds | binds |
| h001-15 (antibody, human IgG1, V domains shown) VH: QVQLVQSGAEVKKPGASVKVSCKASGYTFNDYWMHWVRQAPGQGLEWMGYINPSSGFTKYHQNFKDRVTMTRDTSISTAYMELSRLTSDDTAVYYCARQYDYDEDWYFDVWGQGTTVTVSS VL: DIQMSQSPSSLSASVGDRVTITCKSSQSLLNSRTRKNFLAWYQQKPGKAPKLLIYWASTRESGVPDRFSGSGSGTDFTLTISSLQPEDFATYYCKQSFNLFTFGQGTKLEIK | binds | binds |
| h001-16 (antibody, human IgG1, V domains shown) VH: QVQLVQSGAEVKKPGASVKVSCKASGYTFNDYWMHWVRQAPGQGLEWMGYINPSSGFTKYHQNFKDRVTMTRDTSISTAYMELSRLTSDDTAVYYCARQYDYDEDWYFDVWGQGTTVTVSS VL: DIVMSQSPSSLSASVGDRVTITCKSSQSLLNSRTRKNFLAWYQQKPGKSPKLLIYWASTRESGVPDRFSGSGSGTDFTLTISSLQPEDFATYYCKQSFNLFTFGQGTKLEIK | binds | binds |
| h001-17 (antibody, human IgG1, V domains shown) VH: QVQLVQSGAEVKKPGASVKVSCKASGYTFNDYWMHWVRQAPGQGLEWMGYINPSSGFTKYHQNFKDRVTMTADKSISTAYMELSRLTSDDTAVYYCARQYDYDEDWYFDVWGQGTTVTVSS VL: DIQMTQSPSSLSASVGDRVTITCKSSQSLLNSRTRKNFLAWYQQKPGKAPKLLIYWASTRESGVPSRFSGSGSGTDFTLTISSLQPEDFATYYCKQSFNLFTFGQGTKLEIK | binds | binds |
| h001-18 (antibody, human IgG1, V domains shown) VH: QVQLVQSGAEVKKPGASVKVSCKASGYTFNDYWMHWVRQAPGQGLEWMGYINPSSGFTKYHQNFKDRVTMTADKSISTAYMELSRLTSDDTAVYYCARQYDYDEDWYFDVWGQGTTVTVSS VL: DIQMTQSPSSLSASVGDRVTITCKSSQSLLNSRTRKNFLAWYQQKPGKAPKLLIYWASTRESGVPDRFSGSGSGTDFTLTISSLQPEDFATYYCKQSFNLFTFGQGTKLEIK | binds | binds |
| h001-19 (antibody, human IgG1, V domains shown) VH: QVQLVQSGAEVKKPGASVKVSCKASGYTFNDYWMHWVRQAPGQGLEWMGYINPSSGFTKYHQNFKDRVTMTADKSISTAYMELSRLTSDDTAVYYCARQYDYDEDWYFDVWGQGTTVTVSS VL: DIQMSQSPSSLSASVGDRVTITCKSSQSLLNSRTRKNFLAWYQQKPGKAPKLLIYWASTRESGVPDRFSGSGSGTDFTLTISSLQPEDFATYYCKQSFNLFTFGQGTKLEIK | binds | binds |
| h001-20 (antibody, human IgG1, V domains shown) VH: QVQLVQSGAEVKKPGASVKVSCKASGYTFNDYWMHWVRQAPGQGLEWMGYINPSSGFTKYHQNFKDRVTMTADKSISTAYMELSRLTSDDTAVYYCARQYDYDEDWYFDVWGQGTTVTVSS VL: DIVMSQSPSSLSASVGDRVTITCKSSQSLLNSRTRKNFLAWYQQKPGKSPKLLIYWASTRESGVPDRFSGSGSGTDFTLTISSLQPEDFATYYCKQSFNLFTFGQGTKLEIK | binds | binds |
| h001-21 (antibody, human IgG1, V domains shown) VH: QVQLVQSGAEVKKPGASVKVSCKASGYTFNDYWMHWVKQAPGQGLEWIGYINPSSGFTKYHQNFKDKATLTADKSISTAYMELSRLTSDDTAVYYCARQYDYDEDWYFDVWGQGTTVTVSS VL: DIQMTQSPSSLSASVGDRVTITCKSSQSLLNSRTRKNFLAWYQQKPGKAPKLLIYWASTRESGVPSRFSGSGSGTDFTLTISSLQPEDFATYYCKQSFNLFTFGQGTKLEIK | binds | binds |
| h001-22 (antibody, human IgG1, V domains shown) VH: QVQLVQSGAEVKKPGASVKVSCKASGYTFNDYWMHWVKQAPGQGLEWIGYINPSSGFTKYHQNFKDKATLTADKSISTAYMELSRLTSDDTAVYYCARQYDYDEDWYFDVWGQGTTVTVSS VL: DIQMTQSPSSLSASVGDRVTITCKSSQSLLNSRTRKNFLAWYQQKPGKAPKLLIYWASTRESGVPDRFSGSGSGTDFTLTISSLQPEDFATYYCKQSFNLFTFGQGTKLEIK | binds | binds |
| h001-23 (antibody, human IgG1, V domains shown) VH: QVQLVQSGAEVKKPGASVKVSCKASGYTFNDYWMHWVKQAPGQGLEWIGYINPSSGFTKYHQNFKDKATLTADKSISTAYMELSRLTSDDTAVYYCARQYDYDEDWYFDVWGQGTTVTVSS VL: DIQMSQSPSSLSASVGDRVTITCKSSQSLLNSRTRKNFLAWYQQKPGKAPKLLIYWASTRESGVPDRFSGSGSGTDFTLTISSLQPEDFATYYCKQSFNLFTFGQGTKLEIK | binds | binds |
| h001-24 (antibody, human IgG1, V domains shown) VH: QVQLVQSGAEVKKPGASVKVSCKASGYTFNDYWMHWVKQAPGQGLEWIGYINPSSGFTKYHQNFKDKATLTADKSISTAYMELSRLTSDDTAVYYCARQYDYDEDWYFDVWGQGTTVTVSS VL: DIVMSQSPSSLSASVGDRVTITCKSSQSLLNSRTRKNFLAWYQQKPGKSPKLLIYWASTRESGVPDRFSGSGSGTDFTLTISSLQPEDFATYYCKQSFNLFTFGQGTKLEIK | binds | binds |
| h001-1 (antibody, human IgG1, V domains shown) VH: QVQLVQSGAEVKKPGASVKVSCKASGYTFTDYWMHWVRQAPGQGLEWMGYINPSSGFTKYHQNFKDRVTMTRDTSISTAYMELSRLRSDDTAVYYCARQYDYDEDWYFDVWGQGTTVTVSS VL: DIQMTQSPSSLSASVGDRVTITCKSSQSLLNSRTRKNFLAWYQQKPGKAPKLLIYWASTRESGVPSRFSGSGSGTDFTLTISSLQPEDFATYYCKQSFNLFTFGQGTKLEIK | binds | binds |
| h001-2 (antibody, human IgG1, V domains shown) VH: QVQLVQSGAEVKKPGASVKVSCKASGYTFTDYWMHWVRQAPGQGLEWMGYINPSSGFTKYHQNFKDRVTMTRDTSISTAYMELSRLRSDDTAVYYCARQYDYDEDWYFDVWGQGTTVTVSS VL: DIQMTQSPSSLSASVGDRVTITCKSSQSLLNSRTRKNFLAWYQQKPGKAPKLLIYWASTRESGVPDRFSGSGSGTDFTLTISSLQPEDFATYYCKQSFNLFTFGQGTKLEIK | binds | binds |
| h001-3 (antibody, human IgG1, V domains shown) VH: QVQLVQSGAEVKKPGASVKVSCKASGYTFTDYWMHWVRQAPGQGLEWMGYINPSSGFTKYHQNFKDRVTMTRDTSISTAYMELSRLRSDDTAVYYCARQYDYDEDWYFDVWGQGTTVTVSS VL: DIQMSQSPSSLSASVGDRVTITCKSSQSLLNSRTRKNFLAWYQQKPGKAPKLLIYWASTRESGVPDRFSGSGSGTDFTLTISSLQPEDFATYYCKQSFNLFTFGQGTKLEIK | binds | binds |
| h001-5 (antibody, human IgG1, V domains shown) VH: QVQLVQSGAEVKKPGASVKVSCKASGYTFNDYWMHWVRQAPGQGLEWMGYINPSSGFTKYHQNFKDRVTMTRDTSISTAYMELSRLRSDDTAVYYCARQYDYDEDWYFDVWGQGTTVTVSS VL: DIQMTQSPSSLSASVGDRVTITCKSSQSLLNSRTRKNFLAWYQQKPGKAPKLLIYWASTRESGVPSRFSGSGSGTDFTLTISSLQPEDFATYYCKQSFNLFTFGQGTKLEIK | binds | binds |
| h001-6 (antibody, human IgG1, V domains shown) VH: QVQLVQSGAEVKKPGASVKVSCKASGYTFNDYWMHWVRQAPGQGLEWMGYINPSSGFTKYHQNFKDRVTMTRDTSISTAYMELSRLRSDDTAVYYCARQYDYDEDWYFDVWGQGTTVTVSS VL: DIQMTQSPSSLSASVGDRVTITCKSSQSLLNSRTRKNFLAWYQQKPGKAPKLLIYWASTRESGVPDRFSGSGSGTDFTLTISSLQPEDFATYYCKQSFNLFTFGQGTKLEIK | binds | binds |
| h001-7 (antibody, human IgG1, V domains shown) VH: QVQLVQSGAEVKKPGASVKVSCKASGYTFNDYWMHWVRQAPGQGLEWMGYINPSSGFTKYHQNFKDRVTMTRDTSISTAYMELSRLRSDDTAVYYCARQYDYDEDWYFDVWGQGTTVTVSS VL: DIQMSQSPSSLSASVGDRVTITCKSSQSLLNSRTRKNFLAWYQQKPGKAPKLLIYWASTRESGVPDRFSGSGSGTDFTLTISSLQPEDFATYYCKQSFNLFTFGQGTKLEIK | binds | binds |
